Laboratory results reported in doi:10.1101/2022.11.08.515568.
These are yes or no findings as the source states them, for the method shown. Some entries that bind do so weakly or less than the wild type.

Protein sequences, listed by entry. Tags and fused reporters are not part of them.
UniProt Q18CX4, whole entry: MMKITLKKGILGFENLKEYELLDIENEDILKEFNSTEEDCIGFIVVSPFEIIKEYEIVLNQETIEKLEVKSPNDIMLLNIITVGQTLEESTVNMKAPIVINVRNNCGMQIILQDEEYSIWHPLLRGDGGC
UniProt Q18CX3, whole entry: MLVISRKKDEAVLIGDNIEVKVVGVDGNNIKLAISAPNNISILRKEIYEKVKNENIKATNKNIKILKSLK

Target: FliW-T25 (Clostridioides difficile) (UniProt Q18CX4)
Assay: two-hybrid

CsrA-T18 (from UniProt Q18CX3 1-70)
binding: binds
